Consider 1 substance from PMC8366450.

Sequences of proteins named here, by UniProt entry; tags and fusion partners are left off.
UniProt O96013: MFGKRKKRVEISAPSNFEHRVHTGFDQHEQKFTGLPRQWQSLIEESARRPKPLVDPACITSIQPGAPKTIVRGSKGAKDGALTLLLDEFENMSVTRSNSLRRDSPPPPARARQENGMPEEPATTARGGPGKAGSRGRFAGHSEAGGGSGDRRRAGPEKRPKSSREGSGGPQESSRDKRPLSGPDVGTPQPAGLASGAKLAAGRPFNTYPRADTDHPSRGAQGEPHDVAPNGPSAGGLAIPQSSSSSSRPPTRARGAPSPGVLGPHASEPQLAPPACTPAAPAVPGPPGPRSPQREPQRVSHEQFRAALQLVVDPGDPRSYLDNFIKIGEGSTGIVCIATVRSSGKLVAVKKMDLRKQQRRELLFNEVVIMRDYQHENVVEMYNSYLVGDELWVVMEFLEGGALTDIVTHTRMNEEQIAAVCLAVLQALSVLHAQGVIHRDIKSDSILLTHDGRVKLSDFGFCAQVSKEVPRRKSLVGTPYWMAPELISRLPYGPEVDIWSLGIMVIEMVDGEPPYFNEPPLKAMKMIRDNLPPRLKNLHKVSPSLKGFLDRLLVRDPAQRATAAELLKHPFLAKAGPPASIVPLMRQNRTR
UniProt O00459: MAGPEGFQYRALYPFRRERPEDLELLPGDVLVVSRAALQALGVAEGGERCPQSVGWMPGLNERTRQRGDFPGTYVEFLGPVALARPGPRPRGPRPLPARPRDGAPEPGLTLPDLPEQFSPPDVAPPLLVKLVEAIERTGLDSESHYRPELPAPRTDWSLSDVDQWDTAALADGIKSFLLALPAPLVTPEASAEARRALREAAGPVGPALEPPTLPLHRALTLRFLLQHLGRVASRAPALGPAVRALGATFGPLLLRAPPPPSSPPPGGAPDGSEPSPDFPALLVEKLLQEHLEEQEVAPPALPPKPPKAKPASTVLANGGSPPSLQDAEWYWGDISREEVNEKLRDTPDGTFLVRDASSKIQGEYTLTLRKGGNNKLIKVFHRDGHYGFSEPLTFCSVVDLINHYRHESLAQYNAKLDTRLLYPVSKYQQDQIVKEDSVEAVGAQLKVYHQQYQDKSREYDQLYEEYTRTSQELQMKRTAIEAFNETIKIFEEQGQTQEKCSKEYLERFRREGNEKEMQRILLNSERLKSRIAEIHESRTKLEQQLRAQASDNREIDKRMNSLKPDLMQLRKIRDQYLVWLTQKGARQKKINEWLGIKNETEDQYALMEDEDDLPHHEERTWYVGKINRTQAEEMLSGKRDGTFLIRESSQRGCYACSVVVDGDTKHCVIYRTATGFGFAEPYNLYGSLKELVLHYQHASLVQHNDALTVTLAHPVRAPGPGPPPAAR

These are yes or no findings as the source states them, for the method shown. In cells and extracts the contact can be indirect. Some results given as binding are weak or reduced against the parent protein; the word gives no strength.

For one assay, the target named is myc-tagged PAK4 (human) (UniProt O96013). The experiment in a line: co-IP; HEK293T cells cotransfected with flag-CPPED1 and myc-PAK4 or myc-PIK3R2, 48 h; precipitation with anti-c-Myc agarose, control agarose as negative control; Western blot with anti-flag and anti-CPPED1. For orientation: A western blot detects proteins with antibodies after separation by electrophoresis.

For assay [1], the target named is myc-tagged PIK3R2 (human) (UniProt O00459). Described as above.

Take “flag-tagged CPPED1 (from UniProt Q9BRF8 1-314) (enzyme)”: the binding entry (with myc-tagged PAK4 (human); in assay [1]) was “binds” each time.
